Assay results: PMC11162808
Results are given in words; binding and its absence hold for the method and conditions named. Binding seen in cells or lysates may run through a third protein. Some results given as binding are weak or reduced against the parent protein; the word gives no strength.

Target: AT-rich interaction domain protein 1A (ARID1A) (human (endogenous in the paper's human cell lines; the line used for the IP is not stated)), O14497
Experiment: co-IP; IP with anti-ARID1A (anti-IgG as control) from benzonase-treated nuclear lysate, protein A/G magnetic beads, beads boiled in Laemmli buffer and loaded on an SDS gel; cells without and with DNA damage
Settings: remark: other sources report otherwise

B1: SCC1/RAD21, O60216 1-631 (protein)
chain: MFYAHFVLSKRGPLAKIWLAAHWDKKLTKAHVFECNLESSVESIISPKVKMALRTSGHLLLGVVRIYHRKAKYLLADCNEAFIKIKMAFRPGVVDLPEENREAAYNAITLPEEFHDFDQPLPDLDDIDVAQQFSLNQSRVEEITMREEVGNISILQENDFGDFGMDDREIMREGSAFEDDDMLVSTTTSNLLLESEQSTSNLNEKINHLEYEDQYKDDNFGEGNDGGILDDKLISNNDGGIFDDPPALSEAGVMLPEQPAHDDMDEDDNVSMGGPDSPDSVDPVEPMPTMTDQTTLVPNEEEAFALEPIDITVKETKAKRKRKLIVDSVKELDSKTIRAQLSDYSDIVTTLDLAPPTKKLMMWKETGGVEKLFSLPAQPLWNNRLLKLFTRCLTPLVPEDLRKRRKGGEADNLDEFLKEFENPEVPREDQQQQHQQRDVIDEPIIEEPSRLQESVMEASRTNIDESAMPPPPPQGVKRKAGQIDPEPVMPPQQVEQMEIPPVELPPEEPPNICQLIPELELLPEKEKEKEKEKEDDEEEEDEDASGGDQDQEERRWNKRTQQMLHGLQRALAKTGAESISLLELCRNTNRKQAAAKFYSFLVLKKQQAIELTQEEPYSDIIATPGPRFHII
For B1, the binding was “binds”.
